Results on one molecule are retold here after publication PMC11237027.

Results are given in words; binding and its absence hold for the method and conditions named. In cells and extracts the contact can be indirect. Some results given as binding are weak or reduced against the parent protein; the word gives no strength. Tags and fused reporters may be left off the sequences shown.

The target of the test is T1, BON-ASSOCIATED PROTEIN2 (BAP2) fused to GST at the N-terminus (Arabidopsis thaliana) (UniProt Q58FX0).
T1 sequence: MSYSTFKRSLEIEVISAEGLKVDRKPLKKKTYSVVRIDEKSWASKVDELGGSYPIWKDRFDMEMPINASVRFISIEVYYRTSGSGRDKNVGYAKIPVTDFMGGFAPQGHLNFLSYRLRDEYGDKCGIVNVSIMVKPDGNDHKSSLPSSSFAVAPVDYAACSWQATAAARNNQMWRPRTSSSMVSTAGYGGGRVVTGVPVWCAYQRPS
Description: pull-down; GST fusions from E. coli extracts bound to glutathione agarose (30 min on ice), then incubated with E. coli protein extracts of the His-tagged proteins; equilibration buffer 125 mM Tris-HCl, 150 mM sodium chloride, pH 8.0; Western blot with anti-His and anti-GST; only the target purified. For orientation: Immunoblotting shows a protein as a band on a membrane.

B1: BON1 fused to His6 at the N-terminus (protein, UniProt Q941L3 1-578)
chain: MGNCCSDVASGAGATAGVGGSGSSAALGATNDALDYYLKSKGFNGLFSQIELSFSASNLRDRDVLSKSDPMVVVYQKEKDATLSEVFRSEVVLNSLAPKWIKKFIVAYHFETVQTLVFRVYDVDTKFQNSREEMLKLDEQQFLGEATCALSEIITKSTRTSTLELKRKDGFAPQAQPHHGKLIIHAEESLASKISTEIVFRCSNLESKDLFSKSDPFLVVSKIVEHGTPIPVSKTEVRKNDLNPIWKPVFLSVQQVGSKDSPVIIECSDFNSNGKHSLIGKVQKSLSDLEKLHLAGQGINFSLPTGAGQNKVLKSQLFVDKFTETVHHTFLEYLASGFELNFMVAIDFTASNGNPRLPDSLHYIDPSGRLNAYQRAIMDVGEVLQFYDSDKRFPAWGFGARPIDAPVSHCFNLNGSSSYSEVDGIQGIMTSYTSALFNVSLAGPTLFGPVINAAAMIASASLAQGSRKYYVLLIITDGVITDLQETKDALVSASDLPLSILIVGVGGADFKEMEILDADKGERLESSSGRLASRDIVQFVALRDVQYGEISVVQALLAELPSQFLTYMRIRNMKPIPP
B1: the binding result is given as “binds”.
